From PMC6925385, “Dual role of a GTPase conformational switch for membrane fusion by mitofusin ubiquitylation” (Life Science Alliance, 2019) come the findings set out here.

The chains behind the UniProt entries cited, without tags or fusion partners.
UniProt P25694: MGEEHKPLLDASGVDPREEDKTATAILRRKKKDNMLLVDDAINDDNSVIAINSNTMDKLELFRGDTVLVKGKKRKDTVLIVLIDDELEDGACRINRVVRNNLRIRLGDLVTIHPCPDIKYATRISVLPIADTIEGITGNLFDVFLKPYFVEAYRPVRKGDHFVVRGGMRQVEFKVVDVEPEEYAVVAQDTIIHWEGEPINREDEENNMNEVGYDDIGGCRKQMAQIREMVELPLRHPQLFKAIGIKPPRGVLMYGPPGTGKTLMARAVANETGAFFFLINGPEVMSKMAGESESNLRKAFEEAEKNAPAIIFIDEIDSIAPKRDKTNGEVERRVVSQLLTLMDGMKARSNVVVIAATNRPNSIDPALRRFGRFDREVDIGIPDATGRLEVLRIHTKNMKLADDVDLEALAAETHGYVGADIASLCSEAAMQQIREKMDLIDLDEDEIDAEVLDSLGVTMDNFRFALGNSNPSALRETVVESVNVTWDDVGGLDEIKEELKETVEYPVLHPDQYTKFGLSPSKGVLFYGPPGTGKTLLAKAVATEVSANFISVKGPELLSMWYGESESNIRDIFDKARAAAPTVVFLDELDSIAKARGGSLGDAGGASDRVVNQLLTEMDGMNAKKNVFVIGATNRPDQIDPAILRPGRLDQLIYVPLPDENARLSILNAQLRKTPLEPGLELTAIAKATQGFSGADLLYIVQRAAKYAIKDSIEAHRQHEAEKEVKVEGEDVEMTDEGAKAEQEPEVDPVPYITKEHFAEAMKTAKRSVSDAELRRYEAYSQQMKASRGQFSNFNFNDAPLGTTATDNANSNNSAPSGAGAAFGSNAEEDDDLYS

Numbering of substitutions follows the chain as printed. These are yes or no findings as the source states them, for the method shown. For part of these data: In cells and extracts the contact can be indirect. Some results given as binding are weak or reduced against the parent protein; the word gives no strength. Where a sequence is shown, tags or fusion partners need not be part of it.

Assay [1] addresses T1, HA-tagged Fzo1^K398,382,387R (yeast (strains isogenic to S288c)) (UniProt P38297).
T1 sequence: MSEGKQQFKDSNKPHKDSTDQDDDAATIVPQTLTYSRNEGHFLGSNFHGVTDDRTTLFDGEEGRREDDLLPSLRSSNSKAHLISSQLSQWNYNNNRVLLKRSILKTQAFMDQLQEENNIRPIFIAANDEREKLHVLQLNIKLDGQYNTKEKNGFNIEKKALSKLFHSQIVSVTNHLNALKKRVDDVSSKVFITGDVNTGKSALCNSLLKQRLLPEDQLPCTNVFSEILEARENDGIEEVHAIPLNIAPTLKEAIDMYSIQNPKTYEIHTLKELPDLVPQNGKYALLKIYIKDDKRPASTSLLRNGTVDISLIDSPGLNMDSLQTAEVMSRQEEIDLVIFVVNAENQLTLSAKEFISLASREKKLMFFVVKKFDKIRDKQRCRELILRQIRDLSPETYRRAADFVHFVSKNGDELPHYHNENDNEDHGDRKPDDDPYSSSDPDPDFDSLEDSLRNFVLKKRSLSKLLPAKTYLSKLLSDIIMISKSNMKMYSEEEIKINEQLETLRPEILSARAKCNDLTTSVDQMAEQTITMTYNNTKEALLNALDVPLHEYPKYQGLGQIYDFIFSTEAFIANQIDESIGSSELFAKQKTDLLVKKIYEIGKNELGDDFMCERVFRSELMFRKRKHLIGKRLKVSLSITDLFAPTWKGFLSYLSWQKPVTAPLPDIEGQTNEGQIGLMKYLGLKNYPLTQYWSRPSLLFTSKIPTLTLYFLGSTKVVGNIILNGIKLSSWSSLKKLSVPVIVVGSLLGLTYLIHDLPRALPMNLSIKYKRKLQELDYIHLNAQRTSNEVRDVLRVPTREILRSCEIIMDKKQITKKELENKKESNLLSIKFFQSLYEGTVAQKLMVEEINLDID
The experiment in a line: co-IP; crude membrane/mitochondrial fraction of yeast cells solubilized with 0.2% NG310 in TBS; HA-Fzo1 variants immunoprecipitated over night at 4°C, washed three times, blots with HA- and Cdc48-specific antibodies; wt and Δubp2 cells (Fig 3D, grown at 37°C) and Δfzo1 cells with plasmid-borne variants (Figs 4B, 5C).

The target in assay [2] is T2, HA-tagged Fzo1^K398,382R (yeast (strains isogenic to S288c)) (UniProt P38297).
T2 sequence (chain, conserved ubiquitylation pattern restored, at a lower level than wt): T1 sequence with R387K
The assay is described as above.

The target in assay [3] is HA-tagged Fzo1^K398R (yeast (strains isogenic to S288c)) (UniProt P38297). The experiment in a line: sucrose gradient centrifugation; crude mitochondrial extracts solubilized with 1% digitonin at high protein density (pellet in 50 μl); 5-25% sucrose gradient, 14-16 h at 4°C; fractions blotted for HA; cells grown at 30°C and 37°C.

Turning to “Cdc48 (ubiquitin-specific AAA chaperone Cdc48/p97/VCP) (from UniProt P25694 1-835)”, the binding result in assay [1] is “no binding”; in assay [2], “binds”.

B1: HA-tagged Fzo1^K398R (protein, UniProt P38297 1-855)
chain: T1 sequence with R382K, R387K
modifications: ladder-like ubiquitylation on a residue other than K398
As to B1, the binding result in assay [3] is “binds”.
